Data: patent US20250163386A1, “Cerebrovascular-Tumor-On-A-Chip” (Ohio State Innovation Foundation, priority 2022, published 2025)
“Also recorded” adds a separate entry of the source. At least one structure is not confirmed: it was looked up by name or label, or the drawing left a doubt.

System: glioma PTOs (patient tumor organoids)
Assay: Drug screening of TMZ in glioma patient tumor organoids (PTOs)
Type: cell-based, human

Cn1nnc2c(C(N)=O)ncn2c1=O [TMZ, temozolomide]
PTO response to TMZ (PTOs made after one or two passages (P1, P2) in 2D culture on tissue culture plastic): PTOs gain resistance to TMZ over time in 2D; also recorded: gained TMZ resistance | PTO response to TMZ (PTOs made directly from fresh tumor biospecimens (no passaging, P0)): showed TMZ sensitivity and tumor cell death
